These are literature values, as cited in PMC3485633 (BMC Pharmacology, 2012).

For the data set, the target named is D2 receptor. To be noted: read-out: Ki D2 receptor; cited from earlier work.

In general, Ki refers to a measure of affinity in units of concentration, obtained from inhibition or displacement. For the molecule `OCCOCCN1CCN(C2=Nc3ccccc3Sc3ccccc32)CC1` [quetiapine], the Ki is 680 nM.
